# Measured values published in PubChem BioAssay AID220 (DTP/NCI, 2004).
# The list does not hold the whole screen: it gathers tests that were run many times, whatever their T/C, doses with no T/C, and many T/C values between a quarter and a half above the control. Further doses and runs are listed elsewhere. T/C: endpoint of the treated group in % of that of the vehicle group. Schedules are NCI's codes, read here as Q, the interval in days (D) or hours (H), X, the number of doses. Some T/C values are followed by the survivors on the day toxicity was checked, most often the fifth; where none is given, no animal had died by that day. Some doses were run more than once; the results are listed from low to high. Some values lie below zero, which means that the treated tumours became smaller. Some entries give survivors of the animals treated and no T/C: the source files T/C as zero there, which appears to mark a toxic dose or a test without result, not a measured value. Counts of survivors are from the toxicity check (mostly the fifth day) where no day follows; animals may have died later.
# System: CD8F1 mice, subcutaneous mammary adenocarcinoma, T/C%
# Assay: NCI In Vivo Anticancer Drug Screen. Data for tumor model Mammary Adenocarcinoma CD8F1 (subcutaneous) in CD8F1
# Settings: higher T/C = larger tumour
# Procedure, shortened: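 Antitumor activity is assessed in transplantable-tumor mice by comparing the treated group with a vehicle-treated control group. Survival or tumor size serves as the measure, reported as T divided by C.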
# [1] = T/C endpoint: median tumor weight (est.), dose: 200.0 mg/kg/injection, schedule: Q07DX005 (ip), vehicle: saline with Tween-80
compound,measurement,setting,value
Cc1cc2c(c3oc(C4(C)OC4C4OC4C)cc(=O)c13)C(=O)c1c(O)c(C3CC(C)(N(C)C)C(O)C(C)O3)cc(C3CC(N(C)C)C(O)C(C)O3)c1C2=O (centres undefined),survivor count,"T/C endpoint: median tumor weight (est.), dose: 0.47 mg/kg/injection, schedule: Q07DX005 (ip), vehicle: Klucel (hydroxypropylcellulose) (HPC)",0 of 10 on day 30
same,survivor count,"T/C endpoint: median tumor weight (est.), dose: 0.94 mg/kg/injection, schedule: Q07DX005 (ip), vehicle: Klucel (hydroxypropylcellulose) (HPC)",0 of 10 on day 30
same,survivor count,"T/C endpoint: median tumor weight (est.), dose: 1.88 mg/kg/injection, schedule: Q07DX005 (ip), vehicle: Klucel (hydroxypropylcellulose) (HPC)",0 of 10 on day 30
same,survivor count,"T/C endpoint: median tumor weight (est.), dose: 3.75 mg/kg/injection, schedule: Q07DX005 (ip), vehicle: Klucel (hydroxypropylcellulose) (HPC)",0 of 10 on day 30
same,survivor count,"T/C endpoint: median tumor weight (est.), dose: 7.5 mg/kg/injection, schedule: Q07DX005 (ip), vehicle: Klucel (hydroxypropylcellulose) (HPC)",0 of 10 on day 30
same,survivor count,"T/C endpoint: median tumor weight (est.), dose: 0.94 micrograms/kg/injection, schedule: Q07DX005 (ip), vehicle: water",1 of 10 on day 30
same,survivor count,"T/C endpoint: median tumor weight (est.), dose: 1.88 micrograms/kg/injection, schedule: Q07DX005 (ip), vehicle: water",2 of 10 on day 30
same,survivor count,"T/C endpoint: median tumor weight (est.), dose: 3.75 micrograms/kg/injection, schedule: Q07DX005 (ip), vehicle: water",2 of 10 on day 30
same,survivor count,"T/C endpoint: median tumor weight (est.), dose: 7.5 micrograms/kg/injection, schedule: Q07DX005 (ip), vehicle: water",3 of 10 on day 30
same,survivor count,"T/C endpoint: median tumor weight (est.), dose: 15.0 micrograms/kg/injection, schedule: Q07DX005 (ip), vehicle: water",0 of 10 on day 30
O=C1NC(c2ccccc2)N=C2Oc3ccccc3C=C12 (centres undefined),T/C,"T/C endpoint: median tumor weight (est.), dose: 6.25 mg/kg/injection, schedule: Q07DX005 (ip), vehicle: saline with Tween-80, evaluated on day 30",133 % of control
same,T/C,"T/C endpoint: median tumor weight (est.), dose: 12.5 mg/kg/injection, schedule: Q07DX005 (ip), vehicle: saline with Tween-80, evaluated on day 30",146 % of control
same,survivor count,[1],0 of 10 on day 30
Cc1c(N)nc([C@H](CC(N)=O)NC[C@H](N)C(N)=O)nc1C(=O)N[C@H](C(=O)N[C@H](C)[C@@H](O)[C@H](C)C(=O)N[C@H](C(=O)NCCc1nc(-c2nc(C(=O)NCCC[S+](C)C)cs2)cs1)[C@@H](C)O)C(OC1OC(CO)C(O)C(O)C1OC1OC(CO)C(O)C(OC(N)=O)C1O)c1cnc[nH]1 (some centres undefined),T/C,"T/C endpoint: median tumor weight (est.), dose: 4.0 mg/kg/injection, schedule: Q07DX005 (ip), vehicle: saline, evaluated on day 30","16, 37 [9 of 10 alive on day 30], 58, 63 % of control"
same,T/C,"T/C endpoint: median tumor weight (est.), dose: 4.0 mg/kg/injection, schedule: Q07DX006 (ip), vehicle: saline, evaluated on day 37",125 % of control
same,T/C,"T/C endpoint: median tumor weight (est.), dose: 8.0 mg/kg/injection, schedule: Q07DX005 (ip), vehicle: saline, evaluated on day 30","7, 20, 21, 43 % of control"
same,survivor count,"T/C endpoint: median tumor weight (est.), dose: 64.0 mg/kg/injection, schedule: Q07DX005 (ip), vehicle: saline",4 of 10 on day 30
same,survivor count,"T/C endpoint: median tumor weight (est.), dose: 128.0 mg/kg/injection, schedule: Q07DX005 (ip), vehicle: saline",0 of 10 on day 30
same,T/C,"T/C endpoint: median tumor weight change, dose: 4.0 mg/kg/injection, schedule: Q01DX001 (ip), vehicle: saline, evaluated on day 28",138 % of control
same,T/C,"T/C endpoint: median tumor weight change, dose: 8.0 mg/kg/injection, schedule: Q01DX001 (ip), vehicle: saline, evaluated on day 28",77 and 121 % of control
same,T/C,"T/C endpoint: median tumor weight change, dose: 8.0 mg/kg/injection, schedule: Q01DX001 (ip), vehicle: saline, evaluated on day 32",44 % of control
same,T/C,"T/C endpoint: median tumor weight change, dose: 8.0 mg/kg/injection, schedule: Q01DX001 (ip), vehicle: saline, evaluated on day 33",102 % of control
same,T/C,"T/C endpoint: median tumor weight change, dose: 16.0 mg/kg/injection, schedule: Q01DX001 (ip), vehicle: saline, evaluated on day 28",43 and 97 % of control
same,T/C,"T/C endpoint: median tumor weight change, dose: 16.0 mg/kg/injection, schedule: Q01DX001 (ip), vehicle: saline, evaluated on day 32",16 % of control
same,T/C,"T/C endpoint: median tumor weight change, dose: 16.0 mg/kg/injection, schedule: Q01DX001 (ip), vehicle: saline, evaluated on day 33",62 % of control
same,T/C,"T/C endpoint: median tumor weight change, dose: 32.0 mg/kg/injection, schedule: Q01DX001 (ip), vehicle: saline, evaluated on day 26",66 % of control
same,T/C,"T/C endpoint: median tumor weight change, dose: 32.0 mg/kg/injection, schedule: Q01DX001 (ip), vehicle: saline, evaluated on day 28",28 and 89 % of control
same,T/C,"T/C endpoint: median tumor weight change, dose: 32.0 mg/kg/injection, schedule: Q01DX001 (ip), vehicle: saline, evaluated on day 32",16 % of control
same,T/C,"T/C endpoint: median tumor weight change, dose: 32.0 mg/kg/injection, schedule: Q01DX001 (ip), vehicle: saline, evaluated on day 33",33 % of control
same,T/C,"T/C endpoint: median tumor weight change, dose: 64.0 mg/kg/injection, schedule: Q01DX001 (ip), vehicle: saline, evaluated on day 26",25 % of control [9 of 10 alive on day 26]
same,T/C,"T/C endpoint: median tumor weight change, dose: 64.0 mg/kg/injection, schedule: Q01DX001 (ip), vehicle: saline, evaluated on day 28",2 and 33 % of control
same,T/C,"T/C endpoint: median tumor weight change, dose: 64.0 mg/kg/injection, schedule: Q01DX001 (ip), vehicle: saline, evaluated on day 33",13 % of control [9 of 10 alive on day 33]
same,survivor count,"T/C endpoint: median tumor weight change, dose: 64.0 mg/kg/injection, schedule: Q01DX001 (ip), vehicle: saline",6 of 10 on day 32
same,T/C,"T/C endpoint: median tumor weight change, dose: 128.0 mg/kg/injection, schedule: Q01DX001 (ip), vehicle: saline, evaluated on day 26",9 % of control [9 of 10 alive on day 26]
same,T/C,"T/C endpoint: median tumor weight change, dose: 128.0 mg/kg/injection, schedule: Q01DX001 (ip), vehicle: saline, evaluated on day 28",-27 [9 of 10 alive on day 28] and 1 % of control [9 of 10 alive on day 28]
same,T/C,"T/C endpoint: median tumor weight change, dose: 128.0 mg/kg/injection, schedule: Q01DX001 (ip), vehicle: saline, evaluated on day 32",53 % of control
same,survivor count,"T/C endpoint: median tumor weight change, dose: 256.0 mg/kg/injection, schedule: Q01DX001 (ip), vehicle: saline",5 of 10 on day 26
COc1cc(O)c2c(O)c3c(c4c2c1[C@]1(C4)C(C)=CCCC1(C)C)[C@H](O)[C@@]1(O)CC(=O)C(C(N)=O)=C(O)[C@@]1(O)C3=O,survivor count,"T/C endpoint: median tumor weight (est.), dose: 100.0 mg/kg/injection, schedule: Q07DX005 (ip), vehicle: saline with Tween-80",0 of 10 on day 30
same,survivor count,[1],0 of 10 on day 30
same,survivor count,"T/C endpoint: median tumor weight (est.), dose: 200.0 mg/kg/injection, schedule: Q07DX005 (ip), vehicle: saline",0 of 10 on day 30
CCC[CH2][Hg][Cl],T/C,"T/C endpoint: median tumor weight (est.), dose: 1.25 mg/kg/injection, schedule: Q07DX005 (ip), vehicle: Klucel (hydroxypropylcellulose) (HPC), evaluated on day 30",144 % of control
same,T/C,"T/C endpoint: median tumor weight (est.), dose: 10.0 mg/kg/injection, schedule: Q07DX005 (ip), vehicle: Klucel (hydroxypropylcellulose) (HPC), evaluated on day 30",140 % of control
same,survivor count,"T/C endpoint: median tumor weight (est.), dose: 40.0 mg/kg/injection, schedule: Q07DX005 (ip), vehicle: Klucel (hydroxypropylcellulose) (HPC)",5 of 10 on day 30
Nc1ccccc1N,T/C,"T/C endpoint: median tumor weight (est.), dose: 50.0 mg/kg/injection, schedule: Q07DX005 (ip), vehicle: Klucel (hydroxypropylcellulose) (HPC), evaluated on day 30",136 % of control [9 of 10 alive]
C1CN1c1nc(N2CC2)nc(N2CC2)n1,survivor count,"T/C endpoint: median tumor weight (est.), dose: 4.0 mg/kg/injection, schedule: Q07DX005 (ip), vehicle: saline",0 of 10 on day 30
same,T/C,"T/C endpoint: median tumor weight change, dose: 0.62 mg/kg/injection, schedule: Q01DX001 (ip), vehicle: suspension in saline, evaluated on day 28",129 % of control
same,survivor count,"T/C endpoint: median tumor weight change, dose: 5.0 mg/kg/injection, schedule: Q01DX001 (ip), vehicle: suspension in saline",0 of 10 on day 28 and 0 of 10 on day 32
same,survivor count,"T/C endpoint: median tumor weight change, dose: 10.0 mg/kg/injection, schedule: Q01DX001 (ip), vehicle: suspension in saline",0 of 10 on day 32
same,survivor count,"T/C endpoint: median tumor weight change, dose: 20.0 mg/kg/injection, schedule: Q01DX001 (ip), vehicle: suspension in saline",0 of 10 on day 32
Nc1nc(=S)c2[nH]cnc2[nH]1,survivor count,"T/C endpoint: median tumor weight (est.), dose: 32.0 mg/kg/injection, schedule: Q07DX005 (ip), vehicle: Klucel (hydroxypropylcellulose) (HPC)",1 of 10
CC(C)CC(=O)NC(C(=O)NC(C(=O)NC(CC(C)C)C(O)CC(=O)NC(C)C(=O)NC(CC(C)C)C(O)CC(=O)O)C(C)C)C(C)C (centres undefined),T/C,"T/C endpoint: median tumor weight change, dose: 125.0 mg/kg/injection, schedule: Q01DX001 (ip), vehicle: Klucel (hydroxypropylcellulose) (HPC), evaluated on day 36",125 % of control
same,T/C,"T/C endpoint: median tumor weight change, dose: 250.0 mg/kg/injection, schedule: Q01DX001 (ip), vehicle: Klucel (hydroxypropylcellulose) (HPC), evaluated on day 36",130 % of control
same,survivor count,"T/C endpoint: median tumor weight change, dose: 500.0 mg/kg/injection, schedule: Q01DX001 (ip), vehicle: Klucel (hydroxypropylcellulose) (HPC)",4 of 10 on day 36
same,survivor count,"T/C endpoint: median tumor weight change, dose: 1000.0 mg/kg/injection, schedule: Q01DX001 (ip), vehicle: Klucel (hydroxypropylcellulose) (HPC)",0 of 10 on day 36
